Consider one compound from PubChem BioAssay AID218 (DTP/NCI, 2004).

This experiment concerns C57BL/6 mice, Adenocarcinoma 755 sc, tumor weight T/C. Kind of experiment: NCI In Vivo Anticancer Drug Screen. Data for tumor model Adenocarcinoma 755 (subcutaneous) in C57BL/6 mice. Particulars: T/C endpoint: mean tumor weight, schedule: Q01DX011 (ip), vehicle: saline, evaluation day not shown, higher T/C = larger tumour. The protocol: The antitumor activity of compounds was measured in mice bearing transplantable tumors. Survival or tumor size were measured and the results are expressed as the measurement made in the treated group (T) divided by the measurement made in the vehicle treated control group (C). The tumor model used in this assay is Adenocarcinoma 755 (subcutaneous) in C57BL/6 mice

The structures appear in SMILES notation. The list is a part of this screen's results and no random one: it gathers some chemical classes. Other doses and runs of a compound may be missing. T/C: endpoint of the treated group in % of that of the vehicle group. Some T/C values are marked as having no survivor count here; that says nothing about deaths at the dose. Schedule codes are those of the source, read here as Q, the interval in days (D) or hours (H), X, the number of doses.

Consider `FCCNCCCl`, for which the T/C is 76 % of control [survivor count not shown] (dose: 1.0 mg/kg/injection), 66 % of control [survivor count not shown] (dose: 2.0 mg/kg/injection), 87 % of control [survivor count not shown] (dose: 4.0 mg/kg/injection) and 66 % of control [survivor count not shown] (dose: 8.0 mg/kg/injection).
